Test results reported in PubChem BioAssay AID1487 (National Center for Advancing Translational Sciences (NCATS), 2009).
This is one part of the list. These are further read-outs of the screen, such as a control signal, another cell line or another target. No call is given for them. The list favours compounds with an active or inconclusive main result. Potencies come from curve fits of mixed quality, noted in brackets.

Assay: qHTS Assay for Modulators of Lamin A Splicing
Settings: HeLa LMNA splicing GFP/RFP minigene ratio, 48 h
How it was run: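 Read-out is the ratio of GFP to DsRed2 object intensity, acquired by 488 nm laser-scanning cytometry on HeLa lamin A-EGFP minigene reporter cells. Compound incubation 48 hrs at 37 °C in Opti-MEM with 2% FBS; DMSO 0.5% final.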

[1] = measured here: GFP splicing reporter channel
[2] = measured here: RFP viability control channel

SMILES | AC50 [1] | AC50 [2]
C=CCNc1sc(C(=O)c2ccccc2)c(N)c1-c1nc2ccccc2s1 | 11.2 µM [rising, single point] | –
CCOC(=O)c1c(C)n(C)c2ccc(OCC(O)Cn3nc(C)c(Br)c3C)cc12 (stereo unspecified) | 31.6 µM [rising, single point] | 20 µM [rising, single point]
CN(C)CCCN(C(=O)CCc1ccccc1)c1nc2ccc(Br)cc2s1 | 1.26 µM [rising, single point] | 1.26 µM [rising, single point]
O=C(c1cccc(Cl)c1)N1CCC(=O)N(C(COCc2cccc(Cl)c2)Cc2ccccc2)CC1 (stereo unspecified) | 10 µM [rising, partial curve, poor fit] | 14.1 µM [rising, partial curve]
CCOC(=O)C(C)n1nc(/C=C/c2ccc(OC)cc2)ccc1=O (stereo unspecified) | 12.6 µM [falling, partial curve] | –
Cc1ccccc1Cn1nc(C)c(NC(=O)c2cc3nc(-c4ccco4)cc(C(F)(F)F)n3n2)c1C | 10 µM [rising, partial curve] | 10 µM [rising, partial curve]
Cc1cccc(N2CCN(C(=O)C(NS(=O)(=O)c3cccs3)c3ccccc3)CC2)c1C (stereo unspecified) | 14.1 µM [rising, single point] | 17.8 µM [rising, single point]
O=[N+]([O-])c1cccc(S(=O)(=O)N/N=C/c2ccc(O)cc2)c1 | 0.0794 µM [rising, full curve, poor fit] | –
Cc1ccc(NC(=O)NC(=O)CSc2nnnn2C)c(C)c1 | – | 2.24 µM [rising, partial curve, poor fit]
CCOC(=O)c1sc2nc(CC(=O)OC)nc(N3CCN(c4ccc(OC)cc4)CC3)c2c1C | – | 15.8 µM [rising, single point]
COc1ccc(C/C(N)=N/OC(=O)c2cccc([N+](=O)[O-])c2)cc1 | – | 0.0891 µM [falling, full curve, poor fit]
O=C(Nc1ccc(Oc2ccccc2)cc1)c1ccc(F)c(S(=O)(=O)N2CCN(c3ccccc3F)CC2)c1 | 3.55 µM [falling, partial curve, poor fit] | 5.62 µM [falling, full curve, poor fit]
O=[N+]([O-])c1ccc(-c2nc(-c3cccs3)c(-c3cccs3)[nH]2)cc1 | 35.5 µM [falling, single point] | 35.5 µM [falling, single point]
Cc1ccc(-c2nc(CSCC(=O)N3CCOCC3)c(C)o2)cc1 | 20 µM [rising, partial curve] | 15.8 µM [rising, partial curve]
CN(c1ccccc1)S(=O)(=O)c1cccc(NC(=O)Nc2ccc(Cl)cc2C#N)c1 | 35.5 µM [rising, single point] | –
CCc1ccc2ncc(S(=O)(=O)c3ccc(C)c(C)c3)c(N3CCCC3)c2c1 | – | 12.6 µM [rising, single point]
Cc1csc(OCC(=O)Nc2ccc(C)c(C)c2)n1 | 11.2 µM [rising, partial curve, poor fit] | –
COc1cccc(-c2csc(N3CCN(C(=O)NC45CC6CC(CC(C6)C4)C5)CC3)n2)c1 | 20 µM [rising, single point] | 22.4 µM [rising, partial curve]
O=C(c1cccs1)N1CCC(c2nc(-c3ccc(S(=O)(=O)N4CCOCC4)cc3)no2)CC1 | – | 22.4 µM [rising, single point]
CC1(C)OC(=O)C(=CNCCc2ccc(O)cc2)C(=O)O1 | – | 35.5 µM [rising, single point]
Cc1ccccc1NCc1ccc(O)c2ncccc12 | 35.5 µM [rising, single point] | 35.5 µM [rising, single point]
CC(C)(C)NC(=O)CSc1nc(-c2ccccc2)cc(=O)[nH]1 | 0.00794 µM [rising, full curve, poor fit] | –
Cc1cc(NS(=O)(=O)c2cn(C)c(C)n2)ccc1Br | 3.98 µM [rising, partial curve] | 5.01 µM [rising, partial curve]
Cn1c(SCC(=O)c2ccc(F)cc2)nnc1-c1ccccc1N | 10 µM [rising, partial curve] | 12.6 µM [rising, partial curve]
O/N=C/c1cn(-c2ccccc2)nc1-c1ccc2c(c1)OCCO2 | 11.2 µM [falling, partial curve] | 22.4 µM [falling, partial curve]
CCc1ccccc1NC(=O)C1CCN(c2nc3ccccc3[nH]2)CC1 | 0.794 µM [rising, full curve, poor fit] | –
COc1cccc(-c2nc(NCc3cccs3)c3ccccc3n2)c1 | 12.6 µM [falling, partial curve] | 12.6 µM [falling, partial curve]

SMILES | AC50 [1] | AC50 [2]
O=c1ccc2ccc(O)c(O)c2o1 | 7.94 µM [falling, partial curve, poor fit] | –
COc1ccc(-c2nn(-c3ccccc3)cc2/C=C\C(=O)Nc2ccc(C(=O)O)cc2)cc1 | – | 25.1 µM [falling, partial curve]
CC1(OC(=O)C2CCCC2)C(=O)C=C2C=C(c3ccsc3)N(CCc3ccccn3)C=C2C1=O (stereo unspecified) | – | 0.0178 µM [falling, single point]
O=C1C=CC(=O)C(C2=C3C(=O)N(CCc4ccccc4)CC(=O)N3CCC2)=C1 | 7.08 µM [rising, partial curve, poor fit] | 6.31 µM [falling, partial curve]
COC(=O)c1c(NC(=O)c2ccccc2)sc(C(=O)c2ccccc2)c1C | 17.8 µM [falling, single point] | 35.5 µM [falling, single point]
C[C@]12C=CC(=O)C=C1CCC1C3CC[C@](O)(C(=O)CO)[C@@]3(C)CC3OC312 (stereo partly specified) | 0.00708 µM [falling, full curve, poor fit] | –
O=C(Nc1cc(-c2ccc(F)c(F)c2)no1)c1ccccc1F | – | 4.47e-05 µM [falling, full curve]
O=c1c2c(C(F)(F)F)cc(C(F)(F)F)nc2[nH]n1-c1ccccc1 | – | 35.5 µM [rising, single point]
Cc1cccc(Cn2c(SCc3ccc(C(=O)NCc4cccs4)cc3)nc3cccnc32)c1 | 10 µM [falling, partial curve] | 10 µM [falling, partial curve]
C/C(=N\O)c1ccc2c3c([nH]c2c1)CCCC3 | – | 4.47 µM [falling, full curve]
CCc1c(C(=O)NNC(=S)NCC(C)C)csc1C | – | 35.5 µM [rising, single point]
CC(C)c1ccc(NC(=O)c2cc(S(=O)(=O)NC3CCCCC3)ccc2F)cc1 | 15.8 µM [falling, single point] | 31.6 µM [falling, partial curve, poor fit]
COc1ccccc1-c1ccc2ncnc(N(C)C)c2c1 | 11.2 µM [falling, partial curve] | 3.98 µM [falling, full curve, poor fit]
Cc1ccc2[nH]c(CSc3nnc(C)s3)cc(=O)c2c1 | 0.447 µM [rising, full curve, poor fit] | –
Cc1ccc(NC(=O)NC(=O)CN2C(=O)NC3(CCCCCCC3)C2=O)c(C)c1 | – | 20 µM [rising, single point]
COc1ccc(-c2cc(C(F)(F)F)nc(NCc3cccs3)n2)cc1 | 31.6 µM [rising, single point] | 35.5 µM [rising, single point]
Oc1ccccc1-c1nc(/C=C/c2ccccc2)nn1-c1ccccc1 | 15.8 µM [rising, partial curve] | 22.4 µM [rising, partial curve]
CC(NC(=O)/C=C/c1cnc2ccccc2n1)C12CC3CC(CC(C3)C1)C2 (stereo unspecified) | – | 14.1 µM [rising, partial curve]
C=CCn1c(C)cc(C(=O)CSc2nc3ccccc3c(=O)[nH]2)c1C | – | 4.47 µM [rising, full curve, poor fit]
CCN1CCn2c3c(c4cc(Cl)ccc42)CCCC31 (stereo unspecified) | – | 11.2 µM [rising, partial curve]
O=C(CN1C(=O)COc2ccc(S(=O)(=O)N3CCCC3)cc21)NCCc1ccc(Cl)cc1 | 3.16 µM [rising, partial curve, poor fit] | 3.55 µM [rising, partial curve, poor fit]
Cc1ccccc1NC(=O)c1onc2c1CCCC2 | – | 0.631 µM [falling, full curve]
Cc1cccc(C(=O)N2CCN(c3ncnc4c3cnn4-c3ccccc3)CC2)c1 | – | 14.1 µM [rising, partial curve]
Cc1c(C(=O)N2CCCC2)sc(NC(=O)c2ccc(Cl)cc2)c1C#N | – | 14.1 µM [rising, single point]
COc1cc(OC)c(C(=O)CCCN2CCCC2)c(OC)c1 | – | 0.316 µM [falling, partial curve]
CCOc1cc(CN2CCN(c3cccc(C(F)(F)F)c3)CC2)ccc1O | – | 31.6 µM [rising, single point]
O=[N+]([O-])c1ccc(Nc2ccccc2F)nc1 | 10 µM [rising, single point] | –

Quoted at random: five compounds from above
SMILES | AC50 [1] | AC50 [2]
COc1ccc(-c2nn(-c3ccccc3)cc2/C=C\C(=O)Nc2ccc(C(=O)O)cc2)cc1 | – | 25.1 µM [falling, partial curve]
Cc1cccc(Cn2c(SCc3ccc(C(=O)NCc4cccs4)cc3)nc3cccnc32)c1 | 10 µM [falling, partial curve] | 10 µM [falling, partial curve]
CCN1CCn2c3c(c4cc(Cl)ccc42)CCCC31 (stereo unspecified) | – | 11.2 µM [rising, partial curve]
COc1ccccc1-c1ccc2ncnc(N(C)C)c2c1 | 11.2 µM [falling, partial curve] | 3.98 µM [falling, full curve, poor fit]
COc1ccc(-c2cc(C(F)(F)F)nc(NCc3cccs3)n2)cc1 | 31.6 µM [rising, single point] | 35.5 µM [rising, single point]
